The source of these data is US8772007 (dated 2014).

No constants are given. Whether binding was seen depends on the method and setting. Some entries that bind do so weakly or less than the wild type.

The target in this test is Sinorhizobium meliloti SmeI (SMa1993) (Sinorhizobium meliloti). Nature of the test: self-association inferred from Sephadex 200 sizing column elution.

B1: Sinorhizobium meliloti SmeI (SMa1993) (enzyme)
chain: MTINSHSWRTLMVEKRSVLCFGDSLTWGWIPVKGSSPTLRYPYEQRWTGAMAARLGDGYHIIEEGLSARTTSLDDPNDARLNGSTYLPMALASHLPLDLVIIMLGTNDTKSYFHRTPYEIANGMGKLVGQVLTCAGGVGTPYPAPKVLVVAPPPLAPMPDPWFEGMFGGGYEKSKELSGLYKALADFMKVEFFAAGDCISTDGIDGIHLSAETNIRLGHAIADKVAALF
Take B1: the binding entry was “binds”.
